Experimental data: patent publication US20240317865A1, “ANTIBODIES AGAINST INTEGRIN ALPHA 11 BETA 1” (MOMENTA PHARMACEUTICALS, INC., priority 2020, published 2024)
Results are given in words; binding and its absence hold for the method and conditions named. Some entries that bind do so weakly or less than the wild type. Each block holds one binder with its values, some of them ahead of it.

Protein sequences, listed by entry. Tags and fused reporters are not part of them. Lines headed by an entry give the natural chain unless they say otherwise; changes in a name come on top.
UniProt O75578: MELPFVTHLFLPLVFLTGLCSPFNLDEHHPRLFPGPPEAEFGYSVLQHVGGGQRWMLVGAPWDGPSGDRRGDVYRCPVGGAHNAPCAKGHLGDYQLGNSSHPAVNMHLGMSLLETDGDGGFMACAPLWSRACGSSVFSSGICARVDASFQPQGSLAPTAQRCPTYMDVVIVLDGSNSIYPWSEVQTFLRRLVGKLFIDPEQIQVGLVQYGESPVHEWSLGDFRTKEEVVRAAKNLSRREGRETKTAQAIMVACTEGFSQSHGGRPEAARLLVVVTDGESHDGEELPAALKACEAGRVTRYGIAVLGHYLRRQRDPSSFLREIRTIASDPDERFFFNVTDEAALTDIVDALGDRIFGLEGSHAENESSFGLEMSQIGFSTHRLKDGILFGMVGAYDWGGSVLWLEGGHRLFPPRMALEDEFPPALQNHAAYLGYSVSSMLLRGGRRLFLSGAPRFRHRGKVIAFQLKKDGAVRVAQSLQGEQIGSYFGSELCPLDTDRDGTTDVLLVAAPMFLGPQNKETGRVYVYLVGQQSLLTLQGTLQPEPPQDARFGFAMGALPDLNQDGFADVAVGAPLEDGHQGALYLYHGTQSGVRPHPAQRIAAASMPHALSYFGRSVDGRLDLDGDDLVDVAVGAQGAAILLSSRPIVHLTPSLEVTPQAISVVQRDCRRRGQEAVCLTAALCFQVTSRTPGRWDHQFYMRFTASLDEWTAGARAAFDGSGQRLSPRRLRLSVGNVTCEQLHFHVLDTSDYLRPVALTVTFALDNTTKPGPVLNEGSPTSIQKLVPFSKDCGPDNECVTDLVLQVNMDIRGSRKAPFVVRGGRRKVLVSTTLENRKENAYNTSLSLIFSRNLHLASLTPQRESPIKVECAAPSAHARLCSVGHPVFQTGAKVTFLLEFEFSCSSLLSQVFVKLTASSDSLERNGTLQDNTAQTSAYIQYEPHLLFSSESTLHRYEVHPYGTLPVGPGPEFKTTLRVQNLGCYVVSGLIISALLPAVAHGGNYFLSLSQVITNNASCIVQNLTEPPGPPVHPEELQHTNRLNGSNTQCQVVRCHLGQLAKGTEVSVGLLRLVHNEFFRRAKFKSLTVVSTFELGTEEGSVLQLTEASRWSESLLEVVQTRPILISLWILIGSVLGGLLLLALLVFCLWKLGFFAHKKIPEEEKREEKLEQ
UniProt P05556: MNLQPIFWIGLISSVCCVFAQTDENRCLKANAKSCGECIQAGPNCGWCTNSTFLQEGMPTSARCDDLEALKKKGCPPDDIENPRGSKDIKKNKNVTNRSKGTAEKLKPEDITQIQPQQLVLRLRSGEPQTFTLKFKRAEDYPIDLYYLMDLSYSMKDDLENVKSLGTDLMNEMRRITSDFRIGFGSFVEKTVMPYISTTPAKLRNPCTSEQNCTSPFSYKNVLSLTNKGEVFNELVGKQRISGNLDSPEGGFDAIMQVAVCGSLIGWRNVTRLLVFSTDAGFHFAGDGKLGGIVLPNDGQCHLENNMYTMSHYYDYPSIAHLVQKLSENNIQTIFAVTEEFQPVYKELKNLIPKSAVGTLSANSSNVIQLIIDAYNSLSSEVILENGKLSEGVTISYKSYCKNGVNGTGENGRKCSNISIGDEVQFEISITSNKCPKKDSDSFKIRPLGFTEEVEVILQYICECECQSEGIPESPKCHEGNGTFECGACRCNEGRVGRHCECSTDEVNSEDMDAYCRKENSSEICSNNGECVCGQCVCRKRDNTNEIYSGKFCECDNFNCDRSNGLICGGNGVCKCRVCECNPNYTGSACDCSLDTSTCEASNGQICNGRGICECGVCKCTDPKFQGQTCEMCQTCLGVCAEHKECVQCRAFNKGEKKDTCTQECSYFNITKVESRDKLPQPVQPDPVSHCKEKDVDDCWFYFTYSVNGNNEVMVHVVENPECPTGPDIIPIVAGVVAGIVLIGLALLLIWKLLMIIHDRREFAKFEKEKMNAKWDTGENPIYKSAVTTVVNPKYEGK
UniProt P56199: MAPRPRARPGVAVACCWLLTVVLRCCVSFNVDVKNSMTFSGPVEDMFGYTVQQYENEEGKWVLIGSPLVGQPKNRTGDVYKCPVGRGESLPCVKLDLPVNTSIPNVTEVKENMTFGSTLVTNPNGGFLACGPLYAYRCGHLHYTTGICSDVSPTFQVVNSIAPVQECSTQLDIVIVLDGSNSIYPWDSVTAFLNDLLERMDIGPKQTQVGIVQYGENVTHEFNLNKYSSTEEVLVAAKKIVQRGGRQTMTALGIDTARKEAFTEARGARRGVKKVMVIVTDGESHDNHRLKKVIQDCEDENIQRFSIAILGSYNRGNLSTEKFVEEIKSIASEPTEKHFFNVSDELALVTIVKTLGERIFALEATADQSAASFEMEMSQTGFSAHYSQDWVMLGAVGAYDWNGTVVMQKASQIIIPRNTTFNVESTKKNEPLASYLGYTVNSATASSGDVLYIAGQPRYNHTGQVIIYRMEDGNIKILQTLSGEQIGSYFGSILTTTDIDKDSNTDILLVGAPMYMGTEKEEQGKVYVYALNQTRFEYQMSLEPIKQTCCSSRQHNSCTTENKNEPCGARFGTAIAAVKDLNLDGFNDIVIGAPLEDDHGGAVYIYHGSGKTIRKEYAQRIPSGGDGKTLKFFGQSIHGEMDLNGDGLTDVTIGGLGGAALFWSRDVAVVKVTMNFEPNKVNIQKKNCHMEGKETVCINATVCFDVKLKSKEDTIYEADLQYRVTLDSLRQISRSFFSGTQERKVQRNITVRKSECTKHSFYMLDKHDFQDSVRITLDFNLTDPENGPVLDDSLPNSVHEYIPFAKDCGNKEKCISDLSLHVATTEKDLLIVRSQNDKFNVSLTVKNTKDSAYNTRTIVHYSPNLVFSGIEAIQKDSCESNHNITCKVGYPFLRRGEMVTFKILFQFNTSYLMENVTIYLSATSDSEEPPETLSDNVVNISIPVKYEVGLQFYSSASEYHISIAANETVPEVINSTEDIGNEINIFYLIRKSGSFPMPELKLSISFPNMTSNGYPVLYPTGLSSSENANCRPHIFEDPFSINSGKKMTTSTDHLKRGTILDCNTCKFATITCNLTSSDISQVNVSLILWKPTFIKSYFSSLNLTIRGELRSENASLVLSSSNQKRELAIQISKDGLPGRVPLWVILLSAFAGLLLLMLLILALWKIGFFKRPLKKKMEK
UniProt P17301: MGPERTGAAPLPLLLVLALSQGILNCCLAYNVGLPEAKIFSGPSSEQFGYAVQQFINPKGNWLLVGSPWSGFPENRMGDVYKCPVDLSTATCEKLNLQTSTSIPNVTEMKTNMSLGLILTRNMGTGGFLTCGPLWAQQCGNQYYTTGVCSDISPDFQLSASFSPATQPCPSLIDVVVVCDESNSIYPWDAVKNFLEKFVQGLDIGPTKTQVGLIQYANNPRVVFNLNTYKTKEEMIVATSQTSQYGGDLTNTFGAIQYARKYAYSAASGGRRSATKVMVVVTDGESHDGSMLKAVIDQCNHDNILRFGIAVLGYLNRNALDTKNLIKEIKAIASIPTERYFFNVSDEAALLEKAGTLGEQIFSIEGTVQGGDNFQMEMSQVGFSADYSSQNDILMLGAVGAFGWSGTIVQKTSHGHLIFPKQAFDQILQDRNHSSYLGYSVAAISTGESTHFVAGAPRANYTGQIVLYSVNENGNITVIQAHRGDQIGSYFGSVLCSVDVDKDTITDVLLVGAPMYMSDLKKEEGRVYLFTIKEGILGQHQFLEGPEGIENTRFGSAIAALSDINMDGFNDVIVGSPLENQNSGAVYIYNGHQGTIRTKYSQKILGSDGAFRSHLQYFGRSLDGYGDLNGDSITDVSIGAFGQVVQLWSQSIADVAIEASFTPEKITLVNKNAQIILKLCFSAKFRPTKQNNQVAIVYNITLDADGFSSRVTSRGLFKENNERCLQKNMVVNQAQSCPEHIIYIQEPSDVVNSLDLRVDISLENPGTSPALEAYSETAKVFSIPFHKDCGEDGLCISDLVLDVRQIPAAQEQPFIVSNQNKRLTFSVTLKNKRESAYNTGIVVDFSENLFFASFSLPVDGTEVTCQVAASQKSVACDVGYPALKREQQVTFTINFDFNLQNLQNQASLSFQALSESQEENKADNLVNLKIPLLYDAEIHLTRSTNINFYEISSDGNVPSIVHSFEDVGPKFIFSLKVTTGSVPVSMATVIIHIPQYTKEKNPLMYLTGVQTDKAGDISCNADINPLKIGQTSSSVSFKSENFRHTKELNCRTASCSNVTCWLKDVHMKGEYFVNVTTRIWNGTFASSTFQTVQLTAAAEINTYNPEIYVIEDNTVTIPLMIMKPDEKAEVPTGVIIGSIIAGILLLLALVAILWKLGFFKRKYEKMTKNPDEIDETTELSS
UniProt P09055: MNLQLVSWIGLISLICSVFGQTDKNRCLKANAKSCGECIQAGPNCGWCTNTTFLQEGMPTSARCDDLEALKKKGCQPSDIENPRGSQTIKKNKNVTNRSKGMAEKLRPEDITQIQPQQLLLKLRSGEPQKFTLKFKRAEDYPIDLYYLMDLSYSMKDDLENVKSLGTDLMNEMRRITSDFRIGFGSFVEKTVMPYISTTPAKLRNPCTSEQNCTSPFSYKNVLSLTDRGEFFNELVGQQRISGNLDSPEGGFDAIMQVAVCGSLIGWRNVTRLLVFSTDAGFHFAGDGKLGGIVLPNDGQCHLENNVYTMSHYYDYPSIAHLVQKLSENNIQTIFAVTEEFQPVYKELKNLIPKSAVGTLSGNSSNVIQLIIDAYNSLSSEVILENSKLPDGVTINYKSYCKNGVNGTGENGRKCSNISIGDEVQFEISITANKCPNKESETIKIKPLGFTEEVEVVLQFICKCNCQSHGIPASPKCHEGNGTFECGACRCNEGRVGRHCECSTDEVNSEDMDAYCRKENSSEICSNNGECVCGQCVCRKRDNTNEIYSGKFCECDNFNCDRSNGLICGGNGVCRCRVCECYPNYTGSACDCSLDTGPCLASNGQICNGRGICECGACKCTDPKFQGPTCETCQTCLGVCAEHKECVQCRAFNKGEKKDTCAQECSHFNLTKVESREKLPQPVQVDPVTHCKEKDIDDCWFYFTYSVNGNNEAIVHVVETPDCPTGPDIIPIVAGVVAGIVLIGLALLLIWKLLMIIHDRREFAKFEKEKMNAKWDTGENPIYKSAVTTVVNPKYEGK

Tests used:
[1] = molecular target: T1, in-house generated I domain of α11β1 (human) (UniProt Q9UKX5); experiment: SPR on the a11b1 I Domain, single-cycle injections of 33, 100 and 300 nM; HBSP trace as blank
T1 sequence (looked up): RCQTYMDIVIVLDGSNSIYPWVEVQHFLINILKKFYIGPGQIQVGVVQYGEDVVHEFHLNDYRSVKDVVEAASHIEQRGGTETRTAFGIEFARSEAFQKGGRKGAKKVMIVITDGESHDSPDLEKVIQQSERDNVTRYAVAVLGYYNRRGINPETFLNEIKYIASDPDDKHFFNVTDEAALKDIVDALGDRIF

[2] = molecular target: T1, in-house generated I domain of α11β1 (human); experiment: ELISA, in-house generated I domain
[3] = molecular target: T1, in-house generated I domain of α11β1 (human); experiment: SPR
[4] = molecular target: T1, in-house generated I domain of α11β1 (human); experiment: ELISA on the human α11β1 I domain, OD 450nm
[5] = molecular target: T1, in-house generated I domain of α11β1 (human); experiment: ELISA, α11β1 I domain
[6] = molecular target: T2, human integrin α10β1 (human) (UniProt O75578+P05556); experiment: counter-screen
[7] = molecular target: T3, human integrin α1β1 (human) (UniProt P56199+P05556); experiment: counter-screen
[8] = molecular target: T4, human integrin α2β1 (human) (UniProt P17301+P05556); experiment: counter-screen
[9] = molecular target: T2, human integrin α10β1 (human); experiment: counter-screen against other collagen receptors
[10] = molecular target: T3, human integrin α1β1 (human); experiment: counter-screen against other collagen receptors
[11] = molecular target: T4, human integrin α2β1 (human); experiment: counter-screen against other collagen receptors
[12] = molecular target: recombinant human integrin alpha 11 beta 1 (α11β1) (human) (UniProt Q9UKX5+P05556); experiment: ELISA, recombinant human α11β1
[13] = molecular target: recombinant mouse integrin alpha 11 beta 1 (α11β1) (mouse) (UniProt P61622+P09055); experiment: ELISA, recombinant mouse α11β1

B2: 9-E16 (antibody, V domains shown)
VH: EVQLQQSGPELVKPGASVKISCKASGYTFTDYYMHWVKQKPGQGLEWIGEIYPGSGNPYYNEKFKGKATLTADKSSSSAYMQLSSLTSEDSAVYFCARTSYGRVGTGFAYWGQGTLVTVSA
VL: NFVMTQTPLSLPVSLGDQASISCRSSQSLLHSNGNTYLHWYLQKPGQSPKLLIYKVSNRFSGVPDRFSGSGSGTDFTLKINRVETEDLGIYFCSQSSHVPTFGAGTKLELK
- binding [4]: binds
- binding [5]: binds

B3: 9-G05 (antibody, V domains shown)
VH: EVQLQQSGPELVKPGASVKIPCKASGYTFPDYNMDWVKQSHGKSLEWIGYINPDNGGTIYNQKFKGKATLTVDKSSSTAYMELRSLTSEDTAVYYCARLDSSGYGYYAMDYWGQGTSVTVSS
VL: DIVLTQSPASLAVSLGQRATISCRASESVDNYGISFMHWYQQKPGQPPKLLIYRASNLDSEIPARFSGSGSRTDFTLTIDPVETDDVATYYCQQSYKDPRTFGGGTKLEIK
- binding [1]: binds
- binding [3]: binds
- binding [4]: binds
- binding [5]: binds

B7: 6-A12 (antibody, V domains shown)
VH: QVTLKESGPGILQPSQTLSLTCSFSGFSLRTFAMGVGWIRQPSGKGLEWLAHIWWDDDKYYNPALKSRLTISKDTSKNQVFLKIANVDTADTATYYCARMPLTFYFDYWGQGTTLTVSS
VL: DVLMTQTPLSLPVSLGDQASISCRSSQSIVHSNGNTYLEWYLQKPGQSPKLLIYKVSTRFSGVPDRFSGSGSGTDFTLKISRVEAEDLGVYYCFQGSHVPFTFGGGTKLEIK
- binding [5]: binds

B8: 9-B11 (antibody, V domains shown)
VH: QVQLQQPGAELVRPGTSVKLSCKASGYTFTSYWMHWVQQRPGQGLEWIGVIDPSDSYTNYNQKFKGKATLTVDTSSSSAYMQLSSLTSEDSAVYYCARDDVAMDYWGQGTSVTVSS
VL: DIVVTQSPASLAVSLGQRATISCRASESVDSYGNSFIHWYQQKPGQPPKLLIYRASNLKSGIPARFSGSGSRTDFTLTINPVEADDVATYYCQQSNEDPYTFGGGTKLEIK
- binding [5]: binds

Second part, the binder after the results:

- binding [1]: binds
- binding [2]: binds
- binding [3]: binds
- binding [4]: binds
- binding [5]: binds
B1: 79E3E3 (antibody, V domains shown)
VH: QIQLVQSGPEVKKPGESVKISCKASGYTFTDYAMNWVKQAPGNGLKWMGWINTQTGKPTYADDFKQRFVFSLETSARTTYLQINNLNIEDTATYFCTRLGTGNTKGFAYWGQGTLVTVSS
VL: DILINQSPASLTVSAGERVTMSCKSSQSLLYSENNQDYLAWYQQKPGQFPKLLIYGASNRHTGVPDRFTGSGSGTDFTLTISSVQAEDLADYYCEQTYRYPFTFGSGTKLEIK

- binding [6]: binds
- binding [7]: binds
- binding [8]: binds
- binding [9]: binds
- binding [10]: binds
- binding [11]: binds
- binding [12]: binds
- binding [13]: binds
B4: 40G10H11 (antibody, V domains shown)
VH: AVQLVESGGGLVQPGRSLKLSCAASRITFTDYYMAWVRQAPTKGLEWVATISSDGGDTFYRDSVKGRFTISRDNAKSTLYLQMVSLRSEDTATYYCSTDRGAQFGYWGQGTLVTVSS
VL: DIQMTQSPSFLSASVGDRVSINCKASQNVHENLNWYQQKLGEAPKRLIYNTNNLQTGIPSRFSGSGSGADYTLTISSLQPEDFATYFCLQHNAFPYTFGPGTKLELK

- binding [5]: binds
B5: 10-F23 (antibody, V domains shown)
VH: QVTLKESGPGILQPSQTLSLTCSFSGFSLSTFAMGVGWIRQPSGKGLEWLAHIWWDDDKYYNPALKSRLTISKDTSKNHVFLKIANVDTADTATYYCARMPLTFYFDYWGQGTTLTVSS
VL: DVLLTQTPLSLPVSLGDQASISCRSSQSIVHSNGHTYLEWYLQKPGQSPKLLIYKVSNRFSGVPDRFSGSGSGTDFTLKISRVEAEDLGVYYCFQGSHVPFTFGGGTKLEIK

- binding [5]: binds
B6: 10-L15 (antibody, V domains shown)
VH: QVQLQQSGPELVRPGASVKMSCKASGYTFTSYWMHWVKQRPGQGLEWIGMIDPSNSETWLNQKFKDKATLNVDKSSNTAYMQLSSLTSEDSAVYYCARYDGYYDYWGQGTTLTVSS
VL: NIVLTQSPASLAVSLGQRATISCRASESVDSYGNSFMHWYQQKPGQPPKLLIYLASNVESGVPARFSGSGSRTDFTLTIDPVEADDAATYYCQQNNEDPWTFGGGTKLEIK
